Laboratory results reported in article PMC5534670.
Results are given in words; binding and its absence hold for the method and conditions named. Some binding calls cover weakened binding; strength is not graded here.

Protein sequences, listed by entry. Tags and fused reporters are not part of them. Lines headed by an entry give the natural chain unless they say otherwise; changes in a name come on top. Residues count along the entry.
UniProt Q9NNX6: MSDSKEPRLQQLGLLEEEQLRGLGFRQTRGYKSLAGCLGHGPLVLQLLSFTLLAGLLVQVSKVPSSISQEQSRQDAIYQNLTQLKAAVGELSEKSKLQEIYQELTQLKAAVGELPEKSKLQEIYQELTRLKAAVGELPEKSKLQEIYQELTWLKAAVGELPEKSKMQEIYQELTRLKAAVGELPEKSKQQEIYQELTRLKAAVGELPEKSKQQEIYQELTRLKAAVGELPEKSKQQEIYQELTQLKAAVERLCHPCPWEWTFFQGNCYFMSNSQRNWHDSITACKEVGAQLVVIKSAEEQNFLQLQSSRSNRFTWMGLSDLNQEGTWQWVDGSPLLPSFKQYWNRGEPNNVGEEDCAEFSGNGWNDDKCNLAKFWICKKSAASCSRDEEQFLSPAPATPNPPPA
DC-SIGN tetramer (entire extracellular domain): residues 59-404 of Q9NNX6
DC-SIGN monomer (CRD region alone): residues 250-404 of Q9NNX6
UniProt Q9H2X3, residues 71-399: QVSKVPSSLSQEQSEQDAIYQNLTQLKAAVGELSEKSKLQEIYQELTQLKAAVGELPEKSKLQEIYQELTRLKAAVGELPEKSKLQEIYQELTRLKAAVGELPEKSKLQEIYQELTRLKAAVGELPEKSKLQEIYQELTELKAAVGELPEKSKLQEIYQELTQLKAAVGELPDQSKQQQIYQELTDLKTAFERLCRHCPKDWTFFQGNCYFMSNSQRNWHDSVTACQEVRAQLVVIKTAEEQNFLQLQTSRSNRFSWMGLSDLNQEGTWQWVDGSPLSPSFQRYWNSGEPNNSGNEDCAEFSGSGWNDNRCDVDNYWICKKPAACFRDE
UniProt P35247, residues 201-375: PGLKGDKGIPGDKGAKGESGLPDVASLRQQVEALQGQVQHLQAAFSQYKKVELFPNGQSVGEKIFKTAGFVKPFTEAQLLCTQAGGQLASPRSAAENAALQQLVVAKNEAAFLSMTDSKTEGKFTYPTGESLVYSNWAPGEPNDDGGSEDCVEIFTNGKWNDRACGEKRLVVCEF

Columns and labels:
[1] = biological target: DC-SIGN monomer (CRD region alone) (UniProt Q9NNX6); test: far-Western, overlay or dot blot; DC-SIGN and DC-SIGNR proteins run on 12% SDS-PAGE under reducing conditions, transferred to PVDF; probed with rfhSP-D (5 µg/ml) for 2 h; anti-SP-D polyclonal, Protein A-HRP; both purified
[2] = biological target: DC-SIGN tetramer (entire extracellular domain) (UniProt Q9NNX6); test: as above
[3] = biological target: DC-SIGNR tetramer (entire extracellular domain) (UniProt Q9H2X3); test: as above
[4] = biological target: DC-SIGN monomer (CRD region alone) (UniProt Q9NNX6); test: ELISA; DC-SIGN/DC-SIGNR proteins coated (5-0.625 µg/well, carbonate/bicarbonate buffer pH 9.6); 2.5 µg rfhSP-D in 20 mM Tris-HCl pH 7.5, 100 mM NaCl, 5 mM CaCl2 or 5 mM EDTA, 1 h 37°C then 1 h 4°C; detected with anti-SP-D polyclonal and Protein A-HRP; both purified
[5] = biological target: DC-SIGN tetramer (entire extracellular domain) (UniProt Q9NNX6); test: as above
[6] = biological target: DC-SIGNR tetramer (entire extracellular domain) (UniProt Q9H2X3); test: as above

Measured: binding

recombinant fragment of human surfactant protein D (rfhSP-D) (from UniProt P35247 201-375) (domain or fragment)
binds: all assays above
